Experimental data from publication PMC9010424.
Results are given in words; binding and its absence hold for the method and conditions named. In cells and extracts the contact can be indirect. A yes stands for co-enrichment or nearness to the bait. Other partners may have been found. Tags and fused reporters may be left off the sequences shown.

Amino acid sequences for entries named in this document (tags omitted).
UniProt P12868: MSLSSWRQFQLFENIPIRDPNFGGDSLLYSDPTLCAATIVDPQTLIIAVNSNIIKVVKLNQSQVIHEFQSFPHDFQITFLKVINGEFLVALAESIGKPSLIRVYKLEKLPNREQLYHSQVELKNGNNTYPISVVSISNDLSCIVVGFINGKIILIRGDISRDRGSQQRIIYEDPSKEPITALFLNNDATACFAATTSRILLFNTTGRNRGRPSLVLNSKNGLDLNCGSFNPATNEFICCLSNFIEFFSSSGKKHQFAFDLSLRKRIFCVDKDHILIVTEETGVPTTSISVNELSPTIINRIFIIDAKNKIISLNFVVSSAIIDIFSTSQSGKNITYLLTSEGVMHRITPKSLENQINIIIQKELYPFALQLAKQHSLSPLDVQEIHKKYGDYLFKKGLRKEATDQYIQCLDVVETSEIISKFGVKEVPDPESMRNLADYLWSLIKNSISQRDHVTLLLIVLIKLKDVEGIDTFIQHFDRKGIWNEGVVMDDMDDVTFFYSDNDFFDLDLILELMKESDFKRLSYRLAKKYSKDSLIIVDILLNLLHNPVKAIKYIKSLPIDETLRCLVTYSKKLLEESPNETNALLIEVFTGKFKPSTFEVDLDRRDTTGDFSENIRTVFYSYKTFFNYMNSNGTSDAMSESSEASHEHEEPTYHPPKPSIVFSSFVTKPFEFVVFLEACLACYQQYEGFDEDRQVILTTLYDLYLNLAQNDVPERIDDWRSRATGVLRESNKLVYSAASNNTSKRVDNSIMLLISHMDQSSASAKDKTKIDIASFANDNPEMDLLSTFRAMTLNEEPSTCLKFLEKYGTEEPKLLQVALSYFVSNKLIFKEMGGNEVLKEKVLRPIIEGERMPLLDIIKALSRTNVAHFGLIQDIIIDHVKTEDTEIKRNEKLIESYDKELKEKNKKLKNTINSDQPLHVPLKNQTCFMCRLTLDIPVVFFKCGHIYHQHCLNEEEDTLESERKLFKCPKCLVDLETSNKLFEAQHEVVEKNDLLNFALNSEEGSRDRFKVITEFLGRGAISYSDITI
UniProt P39940: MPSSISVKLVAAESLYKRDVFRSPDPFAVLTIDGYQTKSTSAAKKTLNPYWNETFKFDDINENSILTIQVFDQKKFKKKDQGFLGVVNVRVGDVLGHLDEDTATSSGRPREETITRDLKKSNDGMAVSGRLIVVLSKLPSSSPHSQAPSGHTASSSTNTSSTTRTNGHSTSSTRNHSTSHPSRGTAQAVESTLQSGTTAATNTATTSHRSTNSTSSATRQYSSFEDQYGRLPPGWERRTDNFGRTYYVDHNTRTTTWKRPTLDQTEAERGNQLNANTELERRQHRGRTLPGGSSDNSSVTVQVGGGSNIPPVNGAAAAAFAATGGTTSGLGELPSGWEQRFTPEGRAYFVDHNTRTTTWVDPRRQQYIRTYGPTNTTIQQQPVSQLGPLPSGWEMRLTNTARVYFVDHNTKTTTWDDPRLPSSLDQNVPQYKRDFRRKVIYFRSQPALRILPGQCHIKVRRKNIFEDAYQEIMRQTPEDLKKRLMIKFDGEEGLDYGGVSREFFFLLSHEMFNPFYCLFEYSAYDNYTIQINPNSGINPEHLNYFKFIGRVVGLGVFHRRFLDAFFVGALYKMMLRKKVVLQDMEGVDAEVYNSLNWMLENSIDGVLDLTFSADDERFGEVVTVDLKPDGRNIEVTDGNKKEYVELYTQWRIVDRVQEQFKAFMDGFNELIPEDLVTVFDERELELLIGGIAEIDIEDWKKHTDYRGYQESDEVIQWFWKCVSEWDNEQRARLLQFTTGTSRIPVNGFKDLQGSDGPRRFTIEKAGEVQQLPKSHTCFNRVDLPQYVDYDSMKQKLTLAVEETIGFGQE
UniProt P19812: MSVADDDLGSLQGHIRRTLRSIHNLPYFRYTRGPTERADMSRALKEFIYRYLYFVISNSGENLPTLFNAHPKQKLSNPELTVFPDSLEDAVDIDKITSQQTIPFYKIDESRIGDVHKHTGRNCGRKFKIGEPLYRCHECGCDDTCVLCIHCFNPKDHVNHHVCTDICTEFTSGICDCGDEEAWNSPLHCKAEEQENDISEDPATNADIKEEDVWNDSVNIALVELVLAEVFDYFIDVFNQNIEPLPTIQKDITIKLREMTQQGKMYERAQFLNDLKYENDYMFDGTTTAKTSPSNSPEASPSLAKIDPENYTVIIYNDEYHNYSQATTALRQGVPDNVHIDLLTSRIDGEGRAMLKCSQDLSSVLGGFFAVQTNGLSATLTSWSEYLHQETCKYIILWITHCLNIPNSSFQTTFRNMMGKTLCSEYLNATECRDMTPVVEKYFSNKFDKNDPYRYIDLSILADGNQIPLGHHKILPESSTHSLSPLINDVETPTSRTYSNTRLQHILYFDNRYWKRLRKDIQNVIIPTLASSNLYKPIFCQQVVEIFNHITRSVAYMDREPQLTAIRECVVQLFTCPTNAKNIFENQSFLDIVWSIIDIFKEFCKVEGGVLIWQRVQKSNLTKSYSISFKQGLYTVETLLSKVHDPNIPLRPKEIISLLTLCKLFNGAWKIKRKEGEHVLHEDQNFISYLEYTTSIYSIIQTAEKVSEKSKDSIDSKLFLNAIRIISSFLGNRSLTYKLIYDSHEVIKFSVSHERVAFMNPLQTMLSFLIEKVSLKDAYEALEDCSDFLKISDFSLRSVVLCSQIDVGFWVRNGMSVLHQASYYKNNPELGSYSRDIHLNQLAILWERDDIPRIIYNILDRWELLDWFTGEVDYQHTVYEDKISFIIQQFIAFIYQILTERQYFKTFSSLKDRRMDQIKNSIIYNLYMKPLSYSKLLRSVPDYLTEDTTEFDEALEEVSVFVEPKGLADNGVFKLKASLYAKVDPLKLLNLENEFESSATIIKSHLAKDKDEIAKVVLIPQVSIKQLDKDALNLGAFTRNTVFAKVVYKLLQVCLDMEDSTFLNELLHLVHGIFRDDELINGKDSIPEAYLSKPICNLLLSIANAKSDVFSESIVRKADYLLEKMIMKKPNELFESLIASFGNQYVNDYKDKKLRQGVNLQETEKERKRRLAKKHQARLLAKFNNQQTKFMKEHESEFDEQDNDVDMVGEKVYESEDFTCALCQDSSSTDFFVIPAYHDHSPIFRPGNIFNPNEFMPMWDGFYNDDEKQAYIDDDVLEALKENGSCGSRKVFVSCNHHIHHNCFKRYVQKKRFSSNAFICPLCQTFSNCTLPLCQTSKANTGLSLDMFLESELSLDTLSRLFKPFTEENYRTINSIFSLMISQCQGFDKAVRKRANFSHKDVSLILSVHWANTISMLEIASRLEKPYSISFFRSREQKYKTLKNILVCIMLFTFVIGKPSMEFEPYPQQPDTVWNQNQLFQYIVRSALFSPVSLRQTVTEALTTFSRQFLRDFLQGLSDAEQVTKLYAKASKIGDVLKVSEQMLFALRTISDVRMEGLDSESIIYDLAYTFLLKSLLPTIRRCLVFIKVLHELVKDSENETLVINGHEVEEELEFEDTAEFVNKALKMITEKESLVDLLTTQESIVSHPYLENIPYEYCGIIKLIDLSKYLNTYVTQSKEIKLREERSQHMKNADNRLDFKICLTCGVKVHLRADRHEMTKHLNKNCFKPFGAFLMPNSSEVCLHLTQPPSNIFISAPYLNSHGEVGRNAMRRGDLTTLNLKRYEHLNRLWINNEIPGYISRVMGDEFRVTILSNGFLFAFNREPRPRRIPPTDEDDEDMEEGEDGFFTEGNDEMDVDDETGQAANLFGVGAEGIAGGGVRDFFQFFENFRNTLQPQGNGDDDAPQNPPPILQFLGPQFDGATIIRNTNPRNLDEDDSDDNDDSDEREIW
UniProt Q07963: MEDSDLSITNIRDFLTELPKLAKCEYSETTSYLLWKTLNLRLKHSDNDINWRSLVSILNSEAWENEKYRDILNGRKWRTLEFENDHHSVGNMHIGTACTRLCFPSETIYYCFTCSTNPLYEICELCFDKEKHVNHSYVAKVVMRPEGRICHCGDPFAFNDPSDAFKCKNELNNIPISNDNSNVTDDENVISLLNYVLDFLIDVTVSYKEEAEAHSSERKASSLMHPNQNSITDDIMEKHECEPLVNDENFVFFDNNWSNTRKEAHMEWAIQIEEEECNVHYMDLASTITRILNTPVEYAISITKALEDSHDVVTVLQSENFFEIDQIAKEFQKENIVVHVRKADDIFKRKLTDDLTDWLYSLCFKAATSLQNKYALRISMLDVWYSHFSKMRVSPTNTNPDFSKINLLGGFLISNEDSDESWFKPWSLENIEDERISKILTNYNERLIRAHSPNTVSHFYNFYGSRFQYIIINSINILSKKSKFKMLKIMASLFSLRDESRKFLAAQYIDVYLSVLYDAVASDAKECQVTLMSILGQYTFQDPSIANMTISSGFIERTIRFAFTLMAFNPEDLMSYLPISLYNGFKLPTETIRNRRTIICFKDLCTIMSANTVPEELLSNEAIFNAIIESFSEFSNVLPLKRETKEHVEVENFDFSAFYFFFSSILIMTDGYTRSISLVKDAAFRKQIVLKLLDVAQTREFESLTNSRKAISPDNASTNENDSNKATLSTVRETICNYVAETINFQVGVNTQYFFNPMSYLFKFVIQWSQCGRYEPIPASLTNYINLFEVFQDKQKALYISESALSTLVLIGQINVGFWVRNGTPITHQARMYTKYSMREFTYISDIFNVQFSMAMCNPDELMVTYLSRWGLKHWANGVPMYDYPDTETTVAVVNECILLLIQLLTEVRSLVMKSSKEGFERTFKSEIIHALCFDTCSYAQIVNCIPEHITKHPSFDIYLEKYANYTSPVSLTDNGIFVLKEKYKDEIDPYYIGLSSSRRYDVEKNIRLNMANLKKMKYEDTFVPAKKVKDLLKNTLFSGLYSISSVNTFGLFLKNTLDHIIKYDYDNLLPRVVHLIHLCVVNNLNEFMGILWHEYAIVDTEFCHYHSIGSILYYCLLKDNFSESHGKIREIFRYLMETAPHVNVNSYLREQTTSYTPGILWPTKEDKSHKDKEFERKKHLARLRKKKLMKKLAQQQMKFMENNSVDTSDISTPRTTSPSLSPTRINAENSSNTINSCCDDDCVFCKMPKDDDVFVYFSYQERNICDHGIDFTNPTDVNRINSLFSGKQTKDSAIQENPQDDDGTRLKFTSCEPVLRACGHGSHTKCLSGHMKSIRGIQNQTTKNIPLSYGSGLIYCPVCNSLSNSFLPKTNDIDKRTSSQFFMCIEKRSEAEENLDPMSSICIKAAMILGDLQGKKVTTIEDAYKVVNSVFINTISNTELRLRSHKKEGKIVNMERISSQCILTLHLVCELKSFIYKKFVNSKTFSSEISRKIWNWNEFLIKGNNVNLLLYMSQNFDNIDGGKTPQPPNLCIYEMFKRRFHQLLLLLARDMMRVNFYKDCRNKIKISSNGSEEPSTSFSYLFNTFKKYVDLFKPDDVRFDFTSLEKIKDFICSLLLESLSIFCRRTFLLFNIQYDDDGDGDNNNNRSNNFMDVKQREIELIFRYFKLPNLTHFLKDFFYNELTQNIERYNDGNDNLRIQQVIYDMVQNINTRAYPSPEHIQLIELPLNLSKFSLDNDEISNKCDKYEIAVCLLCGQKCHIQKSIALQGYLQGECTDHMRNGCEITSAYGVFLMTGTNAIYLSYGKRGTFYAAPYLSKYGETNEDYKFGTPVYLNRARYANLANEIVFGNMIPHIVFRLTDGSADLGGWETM

T1: Mmr1-HA (S. cerevisiae) (UniProt Q06324)
T1 sequence: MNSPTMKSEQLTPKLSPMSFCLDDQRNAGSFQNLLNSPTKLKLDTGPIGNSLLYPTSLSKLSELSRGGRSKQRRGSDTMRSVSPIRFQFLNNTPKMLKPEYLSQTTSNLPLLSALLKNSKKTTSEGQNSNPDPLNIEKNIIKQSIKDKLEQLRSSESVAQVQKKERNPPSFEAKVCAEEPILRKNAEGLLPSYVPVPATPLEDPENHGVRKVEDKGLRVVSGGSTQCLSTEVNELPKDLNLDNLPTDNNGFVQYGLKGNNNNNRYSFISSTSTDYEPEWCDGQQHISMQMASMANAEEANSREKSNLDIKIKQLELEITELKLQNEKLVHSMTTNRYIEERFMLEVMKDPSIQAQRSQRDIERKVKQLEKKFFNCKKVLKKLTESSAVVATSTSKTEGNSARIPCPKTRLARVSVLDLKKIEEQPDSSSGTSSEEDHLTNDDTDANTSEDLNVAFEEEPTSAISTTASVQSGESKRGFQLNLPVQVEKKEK

B1: Dma1 (protein, UniProt P38823 1-416)
chain: MSTNTVPSSPPNQTPPAASGIATSHDHTKFNNPIRLPISISLTINDTPNNNSNNNSVSNGLGILPSRTATSLVVANNGSANGNVGATAAAAATVETNTAPAVNTTKSIRHFIYPPNQVNQTEFSLDIHLPPNTSLPERIDQSTLKRRMDKHGLFSIRLTPFIDTSSTSVANQGLFFDPIIRTAGAGSQIIIGRYTERVREAISKIPDQYHPVVFKSKVISRTHGCFKVDDQGNWFLKDVKSSSGTFLNHQRLSSASTTSKDYLLHDGDIIQLGMDFRGGTEEIYRCVKMKIELNKSWKLKANAFNKEALSRIKNLQKLTTGLEQEDCSICLNKIKPCQAIFISPCAHSWHFHCVRRLVIMNYPQFMCPNCRTNCDLETTLESESESEFENEDEDEPDIEMDIDMEINNNLGVRLVD
B2: Dma2 (protein, UniProt P53924 1-522)
chain: MYTPIPANTPAPTAPTSSMTSNSSSASNANTTSSSGINPRNRASGTPSNERARPASGISSFLNTFGIRQNSQTASSSAAPDQRLFGTTPSNSHMSVAMESIDTAPQQQEPRLHHPIQMPLSAQFHVHRNYQLPISISLTAPTTTDHQQSSAHNFEGNNVGNVQESLNQRQPNGTNNTTTSIISMAPAATTRNIVGGADGSTIVNNSQEMYKNLRHLIYAANQPNGTEILHLDLPATSAEESNNMFNVDEVTLKQRKDKHGLFSIRLTPFIDSSSTTNQGLFFEPIIRKAGPGSQLVIGRYTERVRDAISKIPEQYHPVVFKSKVVSRTHGCFKVDSQGNWYIKDVKSSSGTFLNHQRLSPASSLSKDTPLRDGDILQLGMDFRGGTEEIYRCVRMRIELNRSWKLKANSFNKEALQRLQNLQKLTTGIEEEDCSICLCKIKPCQAIFISPCAHSWHFRCVRRLVMLSYPQFVCPNCRSSCDLEASFESSDEEDESDVESEGDQLVDQLSVLMETSKDVDSHP
B3: Grr1 (protein, UniProt P24814 1-1151)
chain: MDQDNNNHNDSNRLHPPDIHPNLGPQLWLNSSGDFDDNNNNNNNNNNNNSTRPQMPSRTRETATSERNASEVRDATLNNIFRFDSIQRETLLPTNNGQPLNQNFSLTFQPQQQTNALNGIDINTVNTNLMNGVNVQIDQLNRLLPNLPEEERKQIHEFKLIVGKKIQEFLVVIEKRRKKILNEIELDNLKLKELRIDNSPQAISYLHKLQRMRLRALETENMEIRNLRLKILTIIEEYKKSLYAYCHSKLRGQQVENPTDNFIIWINSIDTTESSDLKEGLQDLSRYSRQFINNVLSNPSNQNICTSVTRRSPVFALNMLPSEILHLILDKLNQKYDIVKFLTVSKLWAEIIVKILYYRPHINKKSQLDLFLRTMKLTSEETVFNYRLMIKRLNFSFVGDYMHDTELNYFVGCKNLERLTLVFCKHITSVPISAVLRGCKFLQSVDITGIRDVSDDVFDTLATYCPRVQGFYVPQARNVTFDSLRNFIVHSPMLKRIKITANNNMNDELVELLANKCPLLVEVDITLSPNVTDSSLLKLLTRLVQLREFRITHNTNITDNLFQELSKVVDDMPSLRLIDLSGCENITDKTIESIVNLAPKLRNVFLGKCSRITDASLFQLSKLGKNLQTVHFGHCFNITDNGVRALFHSCTRIQYVDFACCTNLTNRTLYELADLPKLKRIGLVKCTQMTDEGLLNMVSLRGRNDTLERVHLSYCSNLTIYPIYELLMSCPRLSHLSLTAVPSFLRPDITMYCRPAPSDFSENQRQIFCVFSGKGVHKLRHYLVNLTSPAFGPHVDVNDVLTKYIRSKNLIFNGETLEDALRRIITDLNQDSAAIIAATGLNQINGLNNDFLFQNINFERIDEVFSWYLNTFDGIRMSSEEVNSLLLQVNKTFCEDPFSDVDDDQDYVVAPGVNREINSEMCHIVRKFHELNDHIDDFEVNVASLVRVQFQFTGFLLHEMTQTYMQMIELNRQICLVQKTVQESGNIDYQKGLLIWRLLFIDKFIMVVQKYKLSTVVLRLYLKDNITLLTRQRELLIAHQRSAWNNNNDNDANRNANNIVNIVSDAGANDTSNNETNNGNDDNETENPNFWRQFGNRMQISPDQMRNLQMGLRNQNMVRNNNNNTIDESMPDTAIDSQMDEASGTPDEDML
B4: Hul5 (protein, UniProt P53119 1-910)
chain: MLNFTGQTRRRNVNLGNRTRNSKKDLLEKAKRERERRAQDKLKEDASKTIQKSIRRHFSNVRLFKNTFTSSQLVHMIPAYGGKLIYYISQYDLQQLLKLSHNFLSSYPNSLGNRQLLSLLKLYQDDALVAETLSDLNMDCPTVDEFLDSLSVYLCRASFLSYSSASKLADVIEAWEVMHSSASISIFSISIGSYEKRPFALQFYCILAERNLLPQLINTNPILWDNMAKTYSHCSKGGQKNIAKLLIPNFNNHIAPSVLRSDNDYVLKFYEKAFIDEVIATTANYVSDEDHVKNLMCYIASSPNQSCKNSVLITLLSNKDFVRRLSWEFFHTKFNASKTEAHPLFSVLAQLIDMHLLISTDRELLDYNSVIPIEELKKFTSTLKDFTFRQYWELPKSERNPMLKEAVPLLSKVYERDSRLHFLSTENNPTYWENSEKQFLNLRFYEELQEYEDLYREHLEEESDEDMEKEIDLDKERPPLKSLLLNKMKKRLKSSLRFRKLEILLELPFFIPFEERVDLFYMFIALDKKRLSLDDDHNLINMFTPWASTGMRKQSAIISRDNVLEDAFNAFNSIGERFKASLDVTFINEFGEEAGIDGGGITKEFLTTVSDEGFKDPKHELFRTNDRYELYPSVVYDATKLKYIWFLGKVVGKCLYEHVLIDVSFADFFLKKLLNYSNGFLSSFSDLGSYDSVLYNNLIKLLNMTTDEIKSLDLTFEIDEPESSAKVVDLIPNGSKTYVTKDNVLLYVTKVTDYKLNKRCFKPVSAFHGGLSVIIAPHWMEMFNSIELQMLISGERDNIDLDDLKSNTEYGGYKEEDQTIVDFWEVLNEFKFEEKLNFLKFVTSVPQAPLQGFKALDPKFGIRNAGTEKYRLPTASTCVNLLKLPDYRNKTILREKLLYAINSGARFDLS

biological target: T1, Mmr1-HA (S. cerevisiae); experiment: affinity purification with mass spectrometry; Mmr1-HA immunoprecipitated with anti-HA (12CA5) and Dynabeads Protein G from lysate of cim3-1 cells grown at 25 °C then 2 h at 37 °C; 40 mM Tris-HCl pH 7.5, 150 mM NaCl, 1 mM DTT, 0.5% Triton X-100; co-precipitated proteins detected by LC-MS/MS

Molecule	binding
Pep5 (from UniProt P12868 1-1029)	binds
Rsp5 (from UniProt P39940 1-809)	binds
Ubr1 (from UniProt P19812 1-1950)	binds
Ubr2 (from UniProt Q07963 1-1872)	binds
B1	binds
B2	binds
B3	binds
B4	binds
